## Primary screen of a compound library

From ChEMBL document CHEMBL3988442, “University of Dundee, Small-Polar-MMV Screening Library” (2021).

Each number is a percent effect as filed.
The controls that fix the scale are not given in the record; negative values are as filed.
Compounds were drawn at random from those tested, without regard to their results.
Two or more numbers in one place are separate tests of the same structure; such repeats can differ widely.

Mtb cholesterol medium: 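Growth of Mycobacterium tuberculosis over 4 days (cholesterol / DPPC medium with tyloxapol); the read-out is not stated. Concentration: 50 µM. The record gives no direction; compounds that gave an IC50 in retests scored well above the rest, so higher reads as more growth inhibition. Size under these conditions: about 69,000 compounds, about 370 of them at 50% or above in at least one test.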
Mtb glucose medium: 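Whole-cell growth test on Mycobacterium tuberculosis, read after 3 days in glucose-containing 7H9 medium; the read-out is not stated. Concentration: 50 µM. The record gives no direction; compounds that gave an IC50 in retests scored well above the rest, so higher reads as more growth inhibition. Of about 69,000 compounds tested this way, about 760 (1.1%) reached 50% or more in at least one test.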

For Cc1cc(N(C)C)nc(C2(C)CCCNC2)n1 (centres unmarked) the result was Mtb cholesterol medium: 10.03%; Mtb glucose medium: 10.05%.
For COCCc1ncc(-c2c(C#N)c(N)nc3c2CCc2[nH]ccc2-3)cn1 the result was Mtb cholesterol medium: -47.05% and -6.18%; Mtb glucose medium: -46.14% and -1.972%.
For COCCCNC(=O)N1CCN(C(=O)c2nsc3ccccc23)CC1 the result was Mtb cholesterol medium: 6.67%; Mtb glucose medium: 30.26%.
For Cc1ccc(NCc2ncc(C(C)(C)C)o2)c(Cl)c1 the result was Mtb cholesterol medium: 40.7%; Mtb glucose medium: 50.45% and 31.61%.
For CCC(NC(=O)C1CCN(S(=O)(=O)N(C)C)CC1)c1ccc(C)c(C)c1 (centres unmarked) the result was Mtb cholesterol medium: -26.5%; Mtb glucose medium: -2.242%.
For COc1ncc(-c2cc(NCCN(C)C)nc3[nH]ccc23)c(OC)n1 the result was Mtb cholesterol medium: -32.94%; Mtb glucose medium: -50.97%.
For O=C(O)C(F)(F)F.[H][C@]12CN(Cc3cc(C)on3)C[C@@]1([H])OCCN(C(=O)c1ccsc1)C2 the result was Mtb cholesterol medium: -23.49%; Mtb glucose medium: 15.32% and 2.943%.
For CCN(C(=O)c1nc2c(s1)CCCN2C)C(C)C the result was Mtb cholesterol medium: -3.75%; Mtb glucose medium: -10.65%.
For Cc1ncc(CNC(=O)NC2CCN(C3CCCC3)CC2)s1 the result was Mtb cholesterol medium: -3.951%; Mtb glucose medium: -8.805%.
For Cn1ccc(CS(=O)(=O)Cc2cccc(F)c2)cc1=O the result was Mtb cholesterol medium: 4.052%; Mtb glucose medium: 5.562% and -7.185%.
For CCOCC1CCN(C(=O)Nc2ccc3c(c2)CCCN3C)C1 (centres unmarked) the result was Mtb cholesterol medium: 11.34%; Mtb glucose medium: 23.44%.
For Cc1ccc(C)c(C(=O)CN2C(=O)c3ccccc3CS2(=O)=O)c1 the result was Mtb cholesterol medium: 3.547%; Mtb glucose medium: 11.79%.
For CC(C)N1CCC(Cc2cncc(-c3cc(F)ccc3C(=O)O)n2)C1 (centres unmarked) the result was Mtb cholesterol medium: 4.487%; Mtb glucose medium: -10.24%.
For CNC(=O)c1nc2c(s1)CCN(C(=O)c1ccc(OC)cc1)CC2 the result was Mtb cholesterol medium: 4.925%; Mtb glucose medium: 7.161% and -1.141%.
For CC(=O)N(C)CCCc1cc(-c2ccccc2)no1 the result was Mtb cholesterol medium: -8.575%; Mtb glucose medium: -3.293%.
For c1c[nH]c(-c2cn(CCSc3cnn[nH]3)nn2)n1 the result was Mtb cholesterol medium: -27.26%; Mtb glucose medium: -18.05% and -3.062%.
For Cc1nn(C)c(N2CCOCC2)c1CNCc1ccc(CO)c(F)c1 the result was Mtb cholesterol medium: 8.416%; Mtb glucose medium: -11.66%.
For COc1ccccc1NCC(=O)NCc1scnc1C the result was Mtb cholesterol medium: 3.843%; Mtb glucose medium: -4.439% and -11.81%.
For Cn1ccnc1-c1cn(CCCc2nnc(N)s2)nn1 the result was Mtb cholesterol medium: -16.74%; Mtb glucose medium: 3.536%.
For COc1cccc(CNCc2c(C(C)C)nn(C)c2N(C)C)c1OC the result was Mtb cholesterol medium: -13.17%; Mtb glucose medium: -18.75%.
For CCc1nc(C2CCCN2C(=O)c2ccc3c(c2)COC3)no1 (centres unmarked) the result was Mtb cholesterol medium: -7.138%; Mtb glucose medium: -38.77%.
For COc1cccc2c1OCC(C(=O)N(Cc1ccncc1)CC(C)C)C2 (centres unmarked) the result was Mtb cholesterol medium: 1.614%; Mtb glucose medium: 0.2709% and -3.97%.
For O=C(CN1CCCCC1Cn1cccn1)NC1CCOCC1 (centres unmarked) the result was Mtb cholesterol medium: 1.76% and -5.192%; Mtb glucose medium: -19.94%.
For Cc1cc(O)nc(C2CN(CC3(O)CCOCC3)CCO2)n1 (centres unmarked) the result was Mtb cholesterol medium: -5.06%; Mtb glucose medium: -32.95%.
For COc1ncccc1CN1CCn2c(Cn3cncn3)cnc2C1 the result was Mtb cholesterol medium: -25.95%; Mtb glucose medium: -10.47%.
For CCC(NC(=O)Cn1ccc(=O)n(C)c1=O)c1ccc(OC)cc1 (centres unmarked) the result was Mtb cholesterol medium: -11.14%; Mtb glucose medium: 3.378% and -24.43%.
For CC(C)(C)c1n[nH]cc1CNC1CCC(OCC(F)(F)F)CC1.Cl (centres unmarked) the result was Mtb cholesterol medium: 10.96%; Mtb glucose medium: 28.31%.
For CCC(C)NC(=O)CS(=O)(=O)Cc1nc(-c2cccs2)no1 (centres unmarked) the result was Mtb cholesterol medium: -15.01%; Mtb glucose medium: 20.04%.
For CN(CCOc1ccccc1Cl)S(=O)(=O)N1CCOCC1 the result was Mtb cholesterol medium: 5.104%; Mtb glucose medium: 7.445% and 5.13%.
For CO[C@@H]1CCN(Cc2ccoc2)C[C@@H]1Cc1ccccc1.O=C(O)C(F)(F)F the result was Mtb cholesterol medium: 4.491%; Mtb glucose medium: 5.26%.
For O=C(c1ccc(C2CCCN2)s1)N1CC=CC1 (centres unmarked) the result was Mtb cholesterol medium: 4.99% and -3.487%; Mtb glucose medium: -8.349%.
For Cl.[H][C@@]12OCCC[C@]1([H])NC[C@@H]2NC(=O)c1ccno1 the result was Mtb cholesterol medium: -0.6833%; Mtb glucose medium: -5.467%.
For N#Cc1cccc(OCCCN2CCN(C(=O)c3ccoc3)CC2)c1 the result was Mtb cholesterol medium: 14.8%; Mtb glucose medium: -16.37%.
For CC(C)(CN1CCC2(CCOCC2)CC1)N1CCOCC1 the result was Mtb cholesterol medium: -7.59%; Mtb glucose medium: -27.68%.
For Cc1ccc(C(NC(=O)CCCN2CCCCC2)C(=O)O)cc1 (centres unmarked) the result was Mtb cholesterol medium: 5.087%; Mtb glucose medium: 0.1085%.
For Cc1ccc(C(=O)NCCCN(C)S(C)(=O)=O)cc1-n1cccc1 the result was Mtb cholesterol medium: 32.37%; Mtb glucose medium: 67.12%.

4 of the entries, repeated:

Compound	Mtb cholesterol medium	Mtb glucose medium
Cc1nn(C)c(N2CCOCC2)c1CNCc1ccc(CO)c(F)c1	8.416%	-11.66%
CC(C)(CN1CCC2(CCOCC2)CC1)N1CCOCC1	-7.59%	-27.68%
CCOCC1CCN(C(=O)Nc2ccc3c(c2)CCCN3C)C1 (centres unmarked)	11.34%	23.44%
O=C(O)C(F)(F)F.[H][C@]12CN(Cc3cc(C)on3)C[C@@]1([H])OCCN(C(=O)c1ccsc1)C2	-23.49%	15.32% and 2.943%